For 27 targets, log2 fold change results are on record in the supplement of paper PMC10849652.

Chains of the proteins cited; added tags and fusions are not shown. Lines headed by an entry give the natural chain unless they say otherwise; changes in a name come on top.
UniProt Q8IW50: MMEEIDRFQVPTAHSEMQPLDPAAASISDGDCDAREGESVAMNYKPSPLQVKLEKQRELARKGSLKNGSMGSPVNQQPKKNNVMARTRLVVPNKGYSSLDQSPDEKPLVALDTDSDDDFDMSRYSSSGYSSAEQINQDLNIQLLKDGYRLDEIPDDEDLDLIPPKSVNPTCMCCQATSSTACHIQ
UniProt Q5VUB5: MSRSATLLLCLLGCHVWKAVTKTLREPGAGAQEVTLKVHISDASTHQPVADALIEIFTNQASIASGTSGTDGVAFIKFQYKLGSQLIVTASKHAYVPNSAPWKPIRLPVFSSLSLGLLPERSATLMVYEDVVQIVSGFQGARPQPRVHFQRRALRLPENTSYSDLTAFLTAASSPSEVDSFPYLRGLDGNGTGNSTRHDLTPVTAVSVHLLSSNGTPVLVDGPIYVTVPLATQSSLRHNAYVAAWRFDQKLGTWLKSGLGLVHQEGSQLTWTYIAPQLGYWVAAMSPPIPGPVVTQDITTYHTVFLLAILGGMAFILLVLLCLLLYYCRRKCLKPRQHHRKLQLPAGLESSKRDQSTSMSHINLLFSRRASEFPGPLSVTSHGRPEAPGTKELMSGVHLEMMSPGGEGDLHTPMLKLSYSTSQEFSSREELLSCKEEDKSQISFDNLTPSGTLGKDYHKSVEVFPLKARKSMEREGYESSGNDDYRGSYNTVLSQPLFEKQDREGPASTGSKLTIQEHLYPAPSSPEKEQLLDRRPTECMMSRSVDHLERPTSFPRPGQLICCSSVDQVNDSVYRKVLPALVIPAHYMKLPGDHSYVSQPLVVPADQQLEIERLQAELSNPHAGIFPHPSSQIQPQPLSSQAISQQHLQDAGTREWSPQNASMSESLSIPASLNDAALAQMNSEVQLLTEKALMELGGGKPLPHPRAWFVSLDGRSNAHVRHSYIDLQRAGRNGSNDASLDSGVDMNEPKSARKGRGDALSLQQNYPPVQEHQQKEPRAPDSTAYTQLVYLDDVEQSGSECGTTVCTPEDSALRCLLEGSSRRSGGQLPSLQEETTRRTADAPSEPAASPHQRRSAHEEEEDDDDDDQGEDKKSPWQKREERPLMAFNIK
UniProt Q9NY74: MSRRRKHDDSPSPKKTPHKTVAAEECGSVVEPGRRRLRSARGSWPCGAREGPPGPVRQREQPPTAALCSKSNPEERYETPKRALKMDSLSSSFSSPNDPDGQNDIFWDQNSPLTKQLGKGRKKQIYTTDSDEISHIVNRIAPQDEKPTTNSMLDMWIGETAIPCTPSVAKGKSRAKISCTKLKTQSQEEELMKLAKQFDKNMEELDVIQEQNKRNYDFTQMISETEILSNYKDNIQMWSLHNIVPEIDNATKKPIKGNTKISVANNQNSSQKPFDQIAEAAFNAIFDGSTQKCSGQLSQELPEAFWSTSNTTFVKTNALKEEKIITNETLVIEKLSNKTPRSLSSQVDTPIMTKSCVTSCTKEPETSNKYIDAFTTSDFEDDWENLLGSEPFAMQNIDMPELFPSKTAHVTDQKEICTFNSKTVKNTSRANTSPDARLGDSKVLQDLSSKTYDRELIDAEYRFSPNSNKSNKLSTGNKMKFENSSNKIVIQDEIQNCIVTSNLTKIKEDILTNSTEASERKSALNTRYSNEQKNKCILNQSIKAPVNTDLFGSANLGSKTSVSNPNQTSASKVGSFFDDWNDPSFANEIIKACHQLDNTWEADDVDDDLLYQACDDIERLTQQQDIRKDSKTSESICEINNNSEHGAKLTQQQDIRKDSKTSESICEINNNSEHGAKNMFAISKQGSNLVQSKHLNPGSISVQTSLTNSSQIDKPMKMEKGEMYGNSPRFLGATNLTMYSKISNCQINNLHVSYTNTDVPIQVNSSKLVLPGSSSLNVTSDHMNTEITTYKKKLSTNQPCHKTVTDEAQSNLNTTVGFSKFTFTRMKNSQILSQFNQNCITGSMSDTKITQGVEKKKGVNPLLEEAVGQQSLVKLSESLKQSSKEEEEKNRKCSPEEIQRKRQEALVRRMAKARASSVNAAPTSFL
UniProt O43909: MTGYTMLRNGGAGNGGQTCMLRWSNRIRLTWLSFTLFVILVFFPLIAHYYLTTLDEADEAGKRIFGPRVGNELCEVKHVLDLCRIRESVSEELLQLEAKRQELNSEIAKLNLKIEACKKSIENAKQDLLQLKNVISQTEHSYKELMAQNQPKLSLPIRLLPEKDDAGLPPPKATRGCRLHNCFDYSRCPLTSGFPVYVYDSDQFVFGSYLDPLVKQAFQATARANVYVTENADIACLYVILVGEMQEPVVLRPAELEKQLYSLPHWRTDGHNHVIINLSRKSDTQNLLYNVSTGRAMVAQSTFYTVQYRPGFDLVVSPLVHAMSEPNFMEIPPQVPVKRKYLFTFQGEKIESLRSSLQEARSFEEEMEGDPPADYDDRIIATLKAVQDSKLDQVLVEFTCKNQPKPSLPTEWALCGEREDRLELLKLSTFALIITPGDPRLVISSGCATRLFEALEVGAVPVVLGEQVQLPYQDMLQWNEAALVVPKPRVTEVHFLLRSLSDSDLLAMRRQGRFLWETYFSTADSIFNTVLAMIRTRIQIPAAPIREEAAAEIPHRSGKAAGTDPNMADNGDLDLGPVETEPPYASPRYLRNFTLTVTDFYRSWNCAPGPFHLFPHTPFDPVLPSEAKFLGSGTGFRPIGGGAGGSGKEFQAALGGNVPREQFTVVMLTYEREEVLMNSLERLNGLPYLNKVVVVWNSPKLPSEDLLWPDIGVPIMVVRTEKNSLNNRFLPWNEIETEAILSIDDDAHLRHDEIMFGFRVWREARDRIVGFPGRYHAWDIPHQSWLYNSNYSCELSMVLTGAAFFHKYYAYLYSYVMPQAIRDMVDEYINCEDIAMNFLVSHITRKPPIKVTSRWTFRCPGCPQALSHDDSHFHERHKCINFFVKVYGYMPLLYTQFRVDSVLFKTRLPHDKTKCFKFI
UniProt Q9H8W3: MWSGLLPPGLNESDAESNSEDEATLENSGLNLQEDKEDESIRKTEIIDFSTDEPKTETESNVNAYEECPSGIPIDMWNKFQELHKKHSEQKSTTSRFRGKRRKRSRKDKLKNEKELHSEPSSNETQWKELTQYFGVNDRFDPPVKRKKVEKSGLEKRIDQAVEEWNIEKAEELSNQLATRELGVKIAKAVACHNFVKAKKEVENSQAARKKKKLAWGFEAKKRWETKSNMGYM
UniProt Q96PV7: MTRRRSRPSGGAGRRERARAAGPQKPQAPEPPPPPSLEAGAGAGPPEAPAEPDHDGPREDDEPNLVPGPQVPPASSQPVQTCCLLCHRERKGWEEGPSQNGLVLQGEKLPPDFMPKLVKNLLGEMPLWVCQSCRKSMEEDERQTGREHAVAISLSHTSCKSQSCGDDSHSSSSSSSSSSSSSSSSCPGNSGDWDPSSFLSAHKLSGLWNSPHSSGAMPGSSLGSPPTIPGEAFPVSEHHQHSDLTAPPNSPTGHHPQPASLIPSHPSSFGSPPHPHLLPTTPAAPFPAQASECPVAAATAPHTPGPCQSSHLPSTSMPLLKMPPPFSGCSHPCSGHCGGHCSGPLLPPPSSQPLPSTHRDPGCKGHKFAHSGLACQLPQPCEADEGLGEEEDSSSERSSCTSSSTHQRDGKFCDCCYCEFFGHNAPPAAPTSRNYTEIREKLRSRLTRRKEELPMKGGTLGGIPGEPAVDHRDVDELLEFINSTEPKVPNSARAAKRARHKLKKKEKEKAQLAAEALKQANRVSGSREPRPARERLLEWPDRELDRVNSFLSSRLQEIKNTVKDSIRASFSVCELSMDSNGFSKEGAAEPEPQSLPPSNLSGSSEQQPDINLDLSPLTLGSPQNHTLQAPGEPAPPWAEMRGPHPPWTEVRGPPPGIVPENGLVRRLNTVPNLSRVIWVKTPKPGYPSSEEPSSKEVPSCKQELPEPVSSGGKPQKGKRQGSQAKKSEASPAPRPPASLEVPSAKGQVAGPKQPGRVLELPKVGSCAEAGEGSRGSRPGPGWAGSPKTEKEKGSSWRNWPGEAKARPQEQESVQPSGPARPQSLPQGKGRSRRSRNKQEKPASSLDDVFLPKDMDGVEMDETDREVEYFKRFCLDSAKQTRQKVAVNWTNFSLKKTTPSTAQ
EXOC3L2, A0A1C7CYX0, UniProt A0A1C7CYX0, whole entry, looked up: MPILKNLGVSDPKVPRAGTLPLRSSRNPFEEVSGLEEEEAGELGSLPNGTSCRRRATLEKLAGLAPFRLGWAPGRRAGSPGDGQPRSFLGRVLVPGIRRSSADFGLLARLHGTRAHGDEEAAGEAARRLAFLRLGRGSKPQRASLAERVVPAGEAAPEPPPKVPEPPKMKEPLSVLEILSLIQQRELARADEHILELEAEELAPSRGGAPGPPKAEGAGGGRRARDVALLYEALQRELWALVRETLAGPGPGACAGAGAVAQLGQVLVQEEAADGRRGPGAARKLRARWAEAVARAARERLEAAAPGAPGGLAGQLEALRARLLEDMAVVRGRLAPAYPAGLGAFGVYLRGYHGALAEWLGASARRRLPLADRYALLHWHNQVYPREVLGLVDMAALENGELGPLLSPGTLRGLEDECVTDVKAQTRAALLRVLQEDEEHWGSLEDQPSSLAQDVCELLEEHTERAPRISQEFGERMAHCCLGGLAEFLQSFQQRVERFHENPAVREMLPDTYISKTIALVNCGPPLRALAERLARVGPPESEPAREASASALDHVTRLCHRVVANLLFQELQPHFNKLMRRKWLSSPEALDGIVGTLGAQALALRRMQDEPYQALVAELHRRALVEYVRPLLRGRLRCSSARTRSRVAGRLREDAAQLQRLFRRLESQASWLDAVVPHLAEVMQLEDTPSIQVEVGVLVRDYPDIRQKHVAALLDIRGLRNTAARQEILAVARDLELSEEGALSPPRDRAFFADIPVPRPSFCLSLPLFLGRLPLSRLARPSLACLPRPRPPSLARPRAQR
UniProt Q9BQ89: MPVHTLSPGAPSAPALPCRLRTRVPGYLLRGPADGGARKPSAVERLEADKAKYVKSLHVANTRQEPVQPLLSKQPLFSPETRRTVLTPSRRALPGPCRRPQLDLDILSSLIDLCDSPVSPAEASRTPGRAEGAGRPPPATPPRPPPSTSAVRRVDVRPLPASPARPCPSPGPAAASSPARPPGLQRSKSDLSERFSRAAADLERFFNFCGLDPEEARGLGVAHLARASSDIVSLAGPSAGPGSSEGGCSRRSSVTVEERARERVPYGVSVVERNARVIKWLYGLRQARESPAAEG
UniProt P41161: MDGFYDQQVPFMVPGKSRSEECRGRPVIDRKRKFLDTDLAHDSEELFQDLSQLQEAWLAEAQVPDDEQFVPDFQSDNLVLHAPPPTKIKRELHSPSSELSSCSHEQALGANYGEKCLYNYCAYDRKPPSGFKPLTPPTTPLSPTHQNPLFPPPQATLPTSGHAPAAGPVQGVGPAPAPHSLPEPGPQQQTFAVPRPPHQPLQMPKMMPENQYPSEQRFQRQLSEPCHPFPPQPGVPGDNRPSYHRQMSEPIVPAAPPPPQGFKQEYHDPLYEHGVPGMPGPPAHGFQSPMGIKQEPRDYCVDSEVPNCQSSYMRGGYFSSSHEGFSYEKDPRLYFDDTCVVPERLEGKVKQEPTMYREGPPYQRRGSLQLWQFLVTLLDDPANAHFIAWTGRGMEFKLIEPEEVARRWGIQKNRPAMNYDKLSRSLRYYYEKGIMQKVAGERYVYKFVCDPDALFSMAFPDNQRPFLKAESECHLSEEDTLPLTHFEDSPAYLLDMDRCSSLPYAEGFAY

The list shows a part of the results.

Compound in one test: C#Cc1cccc(Nc2ncnc3cc(OCCOC)c(OCCOC)cc23)c1 [erlotinib]
Put plainly: log2 fold change, soluble protein after heating vs DMSO (PISA); higher = thermal stabilisation; K562 lysate, 10 uM; active = over 0.2 and 3.5 SD of the protein, either way, in both replicates (recomputed). Put shortly:
(§1)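 A 30 min treatment with 10 μM compound was applied to crude K562 extract at 1 mg/mL protein in PBS pH 7.4 with 1 mM MgCl2. Heating for 3 min spanned 48°C-58°C, after which aliquots were pooled, adjusted to 0.5% NP-40 at 4°C and spun at 21,000xg for 90 min. TMTpro 16plex LC-MS/MS of the supernatant, with channel sums equalised, gave values recorded as log-two fold change in thermal stability against solvent controls, from duplicates.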
For FAM174C (UniProt Q9BVV8), the log2 fold change is inactive: -0.186.
Still for that read-out and setting: with FAM219A (UniProt Q8IW50) the figure was inactive: 0.139.
Take ERN1 (UniProt O75460): the log2 fold change is inactive: 0.048.
On the same count and under the same terms, with ERV3-1 (UniProt Q14264) the figure was inactive: -0.196; with ETV1 (UniProt P50549), inactive: -0.081.
Consider ESCO2 (UniProt Q56NI9), for which the log2 fold change was inactive: -0.118.
With EURL (UniProt Q9NYK6), the log2 fold change is inactive: -0.024.
Still for that read-out and setting: with FAM171A1 (UniProt Q5VUB5) the figure was inactive: 0.12; with FAM171A2 (UniProt A8MVW0), inactive: 0.059.
Same read-out and setting: with ETAA1 (UniProt Q9NY74) the figure was inactive: -0.228; with EXTL3 (UniProt O43909), inactive: 0.053; with ESRRB isoform 1 (UniProt O95718), inactive: 0.1.
Still for that read-out and setting: with FAM120A, A0A494C0Y9 the figure was inactive: 0.226; with EXO5 (UniProt Q9H790), inactive: 0.279; with FAM204A (UniProt Q9H8W3), inactive: -0.021.
Regarding FAM193B (UniProt Q96PV7), the log2 fold change was inactive: 0.111.
The same measure, in the same setting: under EXOC3L2, A0A1C7CYX0 stands inactive: -0.142; under FAM110A (UniProt Q9BQ89), inactive: 0.06.
Regarding EVA1B (UniProt Q9NVM1), the log2 fold change was inactive: 0.15.
For FAM53C (UniProt Q9NYF3), the log2 fold change was inactive: -0.052.

Compound in a further test: C/C(=N\NC(=O)C1=CC(=CC=C1)S(=O)(=O)N2CCOCC2)/C3=C(C=CC(=C3)Cl)O
The test is described as above. Put shortly:
as §1
With EWSR1 (UniProt H7BY36), the log2 fold change is inactive: -0.711.
As to FAH isoform 2 (UniProt P16930), the log2 fold change is inactive: -0.2.
The same measure, in the same setting: under FAM72C (UniProt H0Y354) stands inactive: 0.027; under ETAA1 (UniProt Q9NY74), inactive: -0.21.
Take ETV6 (UniProt P41212): the log2 fold change was inactive: 0.013.
Same read-out and setting: under FAM49B, A0A1W2PRQ0 stands inactive: -0.193; under EXTL3 (UniProt O43909), inactive: -0.258.
With FAM204A (UniProt Q9H8W3), the log2 fold change is inactive: -0.018.
Same read-out and setting: under FAM193B (UniProt Q96PV7) stands inactive: 0.159; under EXOC6B (UniProt Q9Y2D4), inactive: 0.084; under ETV5 isoform 2 (UniProt P41161), inactive: -0.022.

Compound in the next test: C1=CC(=CC=C1C2=NC3=C(N2)C=C(C=C3)C(=O)N)OC4=CC=C(C=C4)Cl
The test is described as above. In a few lines: as §1
FAM174C (UniProt Q9BVV8): the log2 fold change was inactive: -0.283.
FAM219A (UniProt Q8IW50): the log2 fold change is inactive: 0.192.
In the case of ERN1 (UniProt O75460), the log2 fold change was inactive: -0.212.
Same read-out and setting: with ERV3-1 (UniProt Q14264) the figure was inactive: -0.088; with ETV1 (UniProt P50549), inactive: 0.149; with ESCO2 (UniProt Q56NI9), inactive: 0.031.
Turning to EURL (UniProt Q9NYK6), the log2 fold change is inactive: -0.027.
Consider FAM171A1 (UniProt Q5VUB5), for which the log2 fold change is inactive: 0.044.
For the target FAM171A2 (UniProt A8MVW0), the log2 fold change is inactive: 0.012.
Regarding ETAA1 (UniProt Q9NY74), the log2 fold change is inactive: -0.412.
EXTL3 (UniProt O43909): the log2 fold change was inactive: -0.071.
The same measure, in the same setting: with ESRRB isoform 1 (UniProt O95718) the figure was active: -0.783.
As to FAM120A, A0A494C0Y9, the log2 fold change is inactive: 0.105.
For EXO5 (UniProt Q9H790), the log2 fold change was inactive: 0.012.
In the case of FAM204A (UniProt Q9H8W3), the log2 fold change was inactive: -0.014.
On to FAM193B (UniProt Q96PV7), for which the log2 fold change was inactive: 0.019.
EXOC3L2, A0A1C7CYX0: the log2 fold change is inactive: 0.137.
As to FAM110A (UniProt Q9BQ89), the log2 fold change is inactive: 0.284.
Same read-out and setting: under EVA1B (UniProt Q9NVM1) stands inactive: 0.127.
On to FAM53C (UniProt Q9NYF3), for which the log2 fold change was inactive: 0.007.
